Test results taken from article doi:10.1101/2023.09.30.560269.
These are yes or no findings as the source states them, for the method shown. In cells and extracts the contact can be indirect. Some binding calls cover weakened binding; strength is not graded here.

Amino acid sequences for entries named in this document (tags omitted). Residues count along the entry.
UniProt P40189, residues 23-918: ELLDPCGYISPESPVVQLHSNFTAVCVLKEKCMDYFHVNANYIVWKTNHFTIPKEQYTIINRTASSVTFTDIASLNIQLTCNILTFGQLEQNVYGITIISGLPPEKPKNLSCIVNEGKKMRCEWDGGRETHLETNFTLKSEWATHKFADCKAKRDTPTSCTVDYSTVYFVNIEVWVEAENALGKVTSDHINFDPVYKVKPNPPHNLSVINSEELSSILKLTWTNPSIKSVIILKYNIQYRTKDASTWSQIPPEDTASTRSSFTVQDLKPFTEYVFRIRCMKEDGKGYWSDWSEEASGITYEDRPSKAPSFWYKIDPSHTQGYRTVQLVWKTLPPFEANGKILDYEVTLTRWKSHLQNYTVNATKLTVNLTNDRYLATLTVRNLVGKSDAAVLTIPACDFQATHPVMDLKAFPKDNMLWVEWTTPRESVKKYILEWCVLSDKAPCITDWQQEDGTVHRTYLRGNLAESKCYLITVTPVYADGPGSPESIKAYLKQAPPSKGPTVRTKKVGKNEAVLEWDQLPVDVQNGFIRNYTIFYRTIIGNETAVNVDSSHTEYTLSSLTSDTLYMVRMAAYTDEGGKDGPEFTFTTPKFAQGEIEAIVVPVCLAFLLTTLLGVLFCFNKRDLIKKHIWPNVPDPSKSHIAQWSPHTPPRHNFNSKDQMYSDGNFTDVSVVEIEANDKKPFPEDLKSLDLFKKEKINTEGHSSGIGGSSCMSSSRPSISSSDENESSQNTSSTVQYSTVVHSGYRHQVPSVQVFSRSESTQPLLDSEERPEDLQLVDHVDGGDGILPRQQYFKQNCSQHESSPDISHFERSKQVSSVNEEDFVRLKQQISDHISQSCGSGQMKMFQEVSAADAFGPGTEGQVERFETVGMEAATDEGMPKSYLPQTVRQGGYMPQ

Biological target: T1, LIFR (endogenous, MKN45 cells) (human (endogenous in MKN45)) (UniProt P42702)
T1 sequence: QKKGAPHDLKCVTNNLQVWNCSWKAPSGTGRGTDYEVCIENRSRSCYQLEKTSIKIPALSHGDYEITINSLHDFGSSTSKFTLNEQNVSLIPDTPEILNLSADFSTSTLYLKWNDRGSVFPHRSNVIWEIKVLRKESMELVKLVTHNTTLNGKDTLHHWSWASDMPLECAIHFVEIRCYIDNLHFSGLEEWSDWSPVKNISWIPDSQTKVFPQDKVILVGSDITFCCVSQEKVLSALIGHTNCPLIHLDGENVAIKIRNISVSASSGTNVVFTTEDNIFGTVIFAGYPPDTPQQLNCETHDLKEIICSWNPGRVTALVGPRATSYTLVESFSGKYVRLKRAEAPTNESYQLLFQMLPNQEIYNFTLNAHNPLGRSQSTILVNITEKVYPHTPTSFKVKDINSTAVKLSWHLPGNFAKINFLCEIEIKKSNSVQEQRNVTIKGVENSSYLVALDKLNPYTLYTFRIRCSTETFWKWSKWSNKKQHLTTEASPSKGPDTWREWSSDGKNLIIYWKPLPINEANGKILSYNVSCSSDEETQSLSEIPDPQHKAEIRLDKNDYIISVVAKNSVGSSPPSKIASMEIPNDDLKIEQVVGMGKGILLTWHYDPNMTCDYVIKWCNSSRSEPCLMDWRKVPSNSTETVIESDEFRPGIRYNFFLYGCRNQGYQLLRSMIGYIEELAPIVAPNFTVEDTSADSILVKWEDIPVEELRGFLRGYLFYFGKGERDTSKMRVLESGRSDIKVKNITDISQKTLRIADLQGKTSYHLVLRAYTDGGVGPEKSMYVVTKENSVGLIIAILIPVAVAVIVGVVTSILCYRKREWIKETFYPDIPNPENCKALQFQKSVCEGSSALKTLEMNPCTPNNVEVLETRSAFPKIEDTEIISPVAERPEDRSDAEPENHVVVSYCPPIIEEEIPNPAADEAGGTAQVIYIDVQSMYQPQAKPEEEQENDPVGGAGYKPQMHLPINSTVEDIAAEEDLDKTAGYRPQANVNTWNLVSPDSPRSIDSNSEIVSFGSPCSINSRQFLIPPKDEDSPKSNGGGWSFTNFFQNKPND
Assay: co-IP

- binding: binds
Substance: glycoprotein (gp) 130 (endogenous, MKN45 cells) (from UniProt P40189 23-918) (receptor)
